# Measurements from patent US20080038267A1, “Treatment Of Cancer” (NEUTEC PHARMA LIMITED, priority 2004, published 2008).
# Key:
# MCF7 cells = assay: Cell Titer Blue viability, single drug, MCF7 cells; type: cell-based; details: Homo sapiens, 48 hour incubation
# Protocol: Viable cells reduce resazurin to resorufin (pink). Cell growth was evaluated as described above. […] The cell lines were split and cells counted. […] The next day, the cells were observed under phase contrast microscopy to ensure they had adhered to the plates and the supernatant medium removed by aspiration.
# K562 cells = assay: Cell Titer Blue viability, single drug, K562 cells; details: Homo sapiens, K562, 48 h
# Protocol: (§1) Viable cells reduce resazurin to resorufin (pink).
# (§2) Cell growth was evaluated as described above.
# K562 was established from pleural effusion of person with chronic myelogenous leukaemia in terminal blast crisis. […] The line used in these experiments was the K562B. […] K562B has been compared to K562A and K562 C, with respect to growth kinetics, cell surface protein markers, surface antigens, cytogenetics and hemoglobin production.
# (§3) The cell lines were counted. […] Fresh medium containing either two-fold increasing concentrations of Mycograb® (1.5-200 μg/ml), or medium alone was then added to the wells. The plate was returned to the incubator for 48 hours following which the cell titre blue assay was carried out, or viable counts were determined using a haemocytometer.
# (§4) The cell lines were counted. […] The plates were returned to the incubator for 48 hours following which cell titre blue assays were carried out.
# KU-812 cells = assay: Cell Titer Blue viability, single drug, KU-812 cells; details: Homo sapiens, KU812, 48 h
# Protocol: as §1, §2, §3, §4
compound,measurement,setting,value
Cc1ccc(NC(=O)c2ccc(CN3CCN(C)CC3)cc2)cc1Nc1nccc(-c2cccnc2)n1 [Imatinib],IC50,MCF7 cells,37.5 µg/mL
same,IC50,K562 cells,16 µg/mL
same,IC50,KU-812 cells,0.12 µg/mL
